Some of the results follow. These are further read-outs of the screen, such as a control signal, another cell line or another target. No call is given for them. Compounds called inactive in the main read-out are mostly missing here. Potencies come from curve fits of mixed quality, noted in brackets.
Assay: qHTS Assay for Lipid Storage Modulators in Drosophila S3 Cells;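 as to cell number change: cells counted by Cell Tracker Red CMTPX staining in the red channel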
Conditions: BODIPY lipid droplet fluorescence, 18-24 h; for cell number change: measured here: cell count max response, cells fed with added oleic acid
How it was run: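 Laser-scanning cytometry quantifies lipid droplet accumulation (500–530 nm total intensity; droplet/cell object ratio) in oleic acid-fed (400 uM added) Drosophila S3 cells treated with a concentration series. 20 uM Triacsin C defined 100% inhibition.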

[1] = measured here: lipid fluorescence (Fed channel) AC50, cells fed with added oleic acid
[2] = measured here: cell number channel AC50, cells fed with added oleic acid

Row | SMILES | cell number change | AC50 [1] | AC50 [2]
1 | COc1cc(C(=S)N2CCCC2)cc(OC)c1O | 21.5% | 2.06 µM [falling, partial curve] | 
2 | COCCN1C2=C(C(=O)CC(C)(C)C2)C(c2ccc(OC)c(OC)c2)C2=C1CC(C)(C)CC2=O | 14.7% |  | 
3 | CCN(C(=O)c1cc2c(C)nc3ccccc3c2o1)c1cc(Cl)ccc1OC | 26.5% | 0.461 µM [rising, full curve, poor fit] | 0.411 µM [rising, full curve, poor fit]
4 | CC1CN(S(=O)(=O)c2ccc(NC(=O)c3cc(-c4ccccc4O)n[nH]3)cc2)CC(C)O1 (stereo not drawn) | -41.3% | 32.6 µM [falling, partial curve, poor fit] | 32.6 µM [falling, partial curve, poor fit]
5 | CCN(CC)C(=O)CSc1nnc(NC(=O)CCc2ccccc2)s1 | 75.8% |  | 16.4 µM [rising, single point]
6 | CC(=O)c1ccc(N2CCN(C(=O)C3(S(=O)(=O)c4ccc(Cl)cc4)CC3)CC2)cc1 | -12.7% | 10.3 µM [falling, partial curve, poor fit] | 
7 | Cn1c(SCC(=O)Nc2ccc(N3CCOCC3)cc2)nnc1-c1ccccc1 | 6.95% |  | 
8 | Cc1nnc(NC(=O)CSc2nccn2Cc2ccc(F)cc2)s1 | 12.5% | 18.4 µM [rising, partial curve] | 
9 | Cc1ccccc1S(=O)(=O)N1CCN(C)CC1 | 11% | 29.1 µM [rising, single point] | 
10 | COC(=O)Nc1ccc(S(=O)(=O)N(CCO)CCO)cc1 | -29.3% |  | 0.146 µM [falling, full curve, poor fit]
11 | CC(=O)N1CCN(Cc2nc3cc(NS(C)(=O)=O)ccc3n2C)CC1 | -3.57% | 0.651 µM [falling, full curve] | 
12 | CC(C)CCNC(=O)NC(=O)Cn1cc(C(F)(F)F)ccc1=O | 7.64% | 20.6 µM [falling, single point] | 
13 | COC(=O)c1cc(S(=O)(=O)C(C)C)c(S(C)=O)s1 (stereo not drawn) | -52% |  | 
14 | CCOC(=O)c1c(C)[nH]c(C(=O)CSc2ccc(Cl)cc2)c1C | -36.2% | 0.411 µM [rising, full curve] | 32.6 µM [falling, single point]
15 | COc1cc(S(=O)(=O)Nc2ccc(C)cc2)ccc1NC(=O)c1ccncc1 | -13.5% | 18.4 µM [falling, single point] | 
16 | COc1ccc(S(=O)(=O)N2CCc3ccccc3C2)cc1OC | 25% | 32.6 µM [rising, single point] | 
17 | Cc1cc(C)c(S(=O)(=O)N2CCOC2CNC(=O)C(=O)NCCN(C)C)c(C)c1 (stereo not drawn) | 8.11% |  | 
18 | O=C(O)CCN1C(=O)c2ccccc2C1=O | -121% | 0.651 µM [falling, full curve] | 16.4 µM [falling, partial curve]
19 | Cc1ccc(S(=O)(=O)Nc2ccccc2C(O)c2ccccc2)cc1 (stereo not drawn) | -30.3% | 29.1 µM [falling, single point] | 29.1 µM [falling, single point]
20 | Cc1nc(C)c(C(=O)N/N=C/c2cn(C)c3ccccc23)s1 | -15% | 1.64 µM [rising, partial curve] | 1.84 µM [rising, partial curve]

Row | SMILES | cell number change | AC50 [1] | AC50 [2]
21 | COC(=O)C1=CNC=C(C(=O)OC)C1c1ccccc1Cl | 7.87% |  | 
22 | Cc1cc(C)c2sc(N(CCCN(C)C)C(=O)c3ccc(S(=O)(=O)N4CCc5ccccc5C4)cc3)nc2c1 | -90% | 0.411 µM [falling, single point] | 6.51 µM [falling, full curve]
23 | COc1cc(-c2c(-c3cc(OC)c(OC)c(OC)c3)noc2C)ccc1F | -5.99% | 8.2 µM [rising, partial curve] | 
24 | CC(=O)c1cc2c(cc1NC(=O)CN1CCC(Cc3ccccc3)CC1)OCO2 | 17.6% | 4.61 µM [rising, full curve] | 
25 | Cc1nc2ncnn2c(C)c1C/C=C/c1ccccc1 | 6.52% |  | 
26 | CCN(CC)CCCN(Cc1cc2cc3c(cc2[nH]c1=O)OCO3)C(=S)Nc1ccc(OC)cc1 | 17.9% | 0.82 µM [rising, full curve, poor fit] | 
27 | CCC(C(=O)OCC(=O)NC(=O)c1ccccc1OC)c1ccccc1 (stereo not drawn) | -9.08% |  | 
28 | O=C(Nc1ccccc1)NC1(C(=O)NCCCN2CCOCC2)CCCCC1 | -19.1% | 3.26 µM [falling, full curve] | 
29 | Cc1ccn2cc(C(=O)N3CCN(c4cnn(-c5ccccc5)c(=O)c4Cl)CC3)nc2c1 | 17.3% | 1.46 µM [rising, partial curve] | 
30 | Cc1cc(Br)cn2ccnc12 | 1.23% | 29.1 µM [rising, partial curve, poor fit] | 
31 | COc1ccc(OC)c(S(=O)(=O)Nc2c(C)n(C)n(-c3ccccc3)c2=O)c1 | 15.4% |  | 
32 | CN1N=C(C(=O)N2CCCC(N3CCN(c4ccc(F)cc4)CC3)C2)CCC1=O (stereo not drawn) | -8.99% | 0.082 µM [rising, full curve, poor fit] | 
33 | CCOC(=O)c1ccc(CSc2nnc(-c3ccncc3)n2N)cc1 | 40.2% | 29.1 µM [falling, single point] | 1.46 µM [rising, full curve]
34 | Cc1ccc2nc(SCC(=O)Nc3ccc(F)cc3F)[nH]c2c1 | -46.1% | 29.1 µM [falling, single point] | 0.146 µM [falling, full curve, poor fit]
35 | CCc1ccc(NC(=O)c2cnn(-c3ccccc3)c2C)cc1 | 9.86% | 0.82 µM [rising, full curve, poor fit] | 
36 | Cc1ccn(C(=O)c2cc3c(C)nn(-c4ccccc4)c3s2)n1 | -26.6% |  | 0.0058 µM [falling, full curve, poor fit]
37 | Cc1[nH]nc(N=CC2=C(O)CC(C)(C)CC2=O)c1-c1ccc(Cl)cc1 | -118% | 29.1 µM [falling, single point] | 16.4 µM [falling, single point]
38 | Cc1cccc(N2CCN(C(=O)C3CCC(=O)N(Cc4ccccc4F)C3)CC2)c1C (stereo not drawn) | -4.53% | 14.6 µM [falling, single point] | 
39 | O=C(NNc1ccc(-c2csnn2)cc1)c1cc(Cl)cc(Cl)c1 | 4.15% | 2.59 µM [rising, single point] | 
40 | Cc1ccc2nc(N(CCCN(C)C)C(=O)c3ccc4c(c3)CCCC4)sc2c1 | -60.1% |  | 18.4 µM [falling, single point]

Shown as tab-separated lines: 3 of the compounds above
Row	SMILES	cell number change	AC50 [1]	AC50 [2]
23	COc1cc(-c2c(-c3cc(OC)c(OC)c(OC)c3)noc2C)ccc1F	-5.99%	8.2 µM [rising, partial curve]	
33	CCOC(=O)c1ccc(CSc2nnc(-c3ccncc3)n2N)cc1	40.2%	29.1 µM [falling, single point]	1.46 µM [rising, full curve]
40	Cc1ccc2nc(N(CCCN(C)C)C(=O)c3ccc4c(c3)CCCC4)sc2c1	-60.1%		18.4 µM [falling, single point]

(continued)

Row | SMILES | cell number change | AC50 [1] | AC50 [2]
41 | O=C(COC(=O)c1nn(-c2ccccc2C(F)(F)F)cc1O)c1ccc(OC(F)F)cc1 | 170% |  | 
42 | CCn1cnc2c1c(=O)n(CC(=O)Nc1cc(C)on1)c(=O)n2Cc1ccccc1 | -11.2% |  | 
43 | O=C(Nc1cccc(O)c1)c1noc2c1CCc1ccccc1-2 | -71.4% | 23.1 µM [falling, single point] | 29.1 µM [falling, single point]
44 | COc1cc(NC(=S)NCCCN2CCOCC2)cc(OC)c1 | 4.24% | 3.26 µM [falling, full curve, poor fit] | 
45 | CC1CCCCC1NC(=O)C1CCN(c2c3c(nc4ncnn24)CCC3)CC1 (stereo not drawn) |  | 6.51 µM [rising, single point] | 
46 | CCN(CC)C(=O)CSc1nc2ncc(Br)cc2[nH]1 | 0.148% |  | 
47 | Cc1nn(C(C)C(=O)NCc2cccs2)c(C)c1[N+](=O)[O-] (stereo not drawn) | -13.1% |  | 
48 | O=C(NCc1cccc(Cl)c1)c1ccc(S(=O)(=O)Nc2cccc(C(F)(F)F)c2)cc1 | -39.5% | 23.1 µM [falling, partial curve] | 0.82 µM [falling, partial curve, poor fit]
49 | COc1ccc(C(CCN2CCCC2)c2c(O)cc(OC)cc2OC)cc1 (stereo not drawn) | 17.5% | 10.3 µM [rising, partial curve, poor fit] | 
50 | CCOC(=O)COn1c(SCC(=O)OCC)nc2ccccc2c1=O | 4.23% |  | 
51 | COn1c(-c2ccc(Cl)cc2Cl)nc2ncccc21 |  | 6.51 µM [rising, single point] | 
52 | Cc1ccc(C(=O)OC(C)C(=O)NC2CCCCC2C)cc1S(=O)(=O)N1CCCCC1 (stereo not drawn) | 14.4% | 2.91 µM [rising, single point] | 
53 | CC(=O)C1=C(O)C(=O)N(Cc2ccco2)C1c1ccc(F)cc1 (stereo not drawn) | -223% | 29.1 µM [falling, partial curve] | 29.1 µM [falling, partial curve]
54 | O=C(COC(=O)c1cccs1)c1ccc2c(c1)OCCO2 | -74.8% | 18.4 µM [falling, partial curve] | 29.1 µM [falling, single point]
55 | O=c1c(Cl)c(Cl)cnn1-c1ccccc1 | -14.6% | 2.91 µM [falling, full curve] | 
56 | COc1ccccc1N1CCN(C(=O)c2oc3ccccc3c2C)CC1 | -60.9% | 8.2 µM [rising, partial curve, poor fit] | 16.4 µM [falling, single point]
57 | S=c1[nH]nc(-c2ccccn2)n1/N=C/c1ccc(-c2ccccc2Cl)o1 | -0.227% |  | 
58 | O=C(CCC(=O)N1CCOc2ccc(Cl)cc21)NCCN1CCOCC1 | 3.46% | 29.1 µM [rising, single point] | 
59 | O=C(O)CCc1ccc(-c2ccc(F)cc2)n1NC(=O)c1ccco1 | -39.1% | 1.84 µM [falling, partial curve] | 
60 | Cc1cc(C(=O)N2CCCC(C(=O)c3ccc4ccccc4c3)C2)n(C)n1 (stereo not drawn) |  | 20.6 µM [falling, single point] | 

From PubChem BioAssay AID2685 (National Center for Advancing Translational Sciences (NCATS), 2010)
